Experimental data reported in publication PMC10331583, “Control of fibrosis with enhanced safety via asymmetric inhibition of prolyl‐tRNA synthetase 1” (EMBO Molecular Medicine, 2023).
Where two headings read alike, the source gives them in different places. Where no unit stands, none is given here, and values compare only within one read-out.

What was measured:
[1] = tested on: WI‐26 VA4 cells; test: CellTiter‐Glo assay (cytotoxicity); conditions: log(inhibitor) vs. response, variable slope (four parameters)
[2] = tested on: WI‐26 VA4 cells stably expressing EV (empty vector); test: Collagen ELISA in cells stably expressing EV; conditions: for Hill slope (collagen): EV cells
[3] = tested on: WI‐26 VA4 cells; test: Puromycin incorporation assay; format: cell-based, human; conditions: for puromycin IC50/collagen IC50 / Relative (puromycin IC50)/(collagen IC50): Fig 5G; for Hill slope of puromycin incorporation / Relative slope of puromycin incorporation: Fig 5J; for Relative (puromycin IC50)/(collagen IC50) / Relative slope of puromycin incorporation: relative to HF
Description: After being rinsed with cold PBS twice, the cells were collected and resuspended in 200 μl of the carbonate bicarbonate buffer (Sigma Aldrich, C3041‐50CAP) with protease inhibitor. The cell lysates were obtained by sonication and centrifugation at 20,000 g for 15 min at 4°C. After protein quantification using a Pierce™ BCA Protein Assay Kit (Thermo Fisher Scientific, 23225), 400 ng of the proteins was coated to ELISA plates for 18 h at 4°C. […] The plates were rinsed with the washing buffer for three times after each antibody incubation step. […] The amount of puromycin incorporated in proteins was determined by measuring the absorbance at 450 nm (reference wavelength at 620 nm). Experimental values marked in red with strikethrough text in the Figure Source Data file were excluded from the analysis. These values were determined by considering the values of biological and technical replicates under the same condition, as well as the values at the former and later chemical concentrations.

[4] = tested on: T1, PARS1; test: Co‐crystal structures of PARS1 with compounds and ATP (binding mode); design: species or system human; conditions: co‐crystal with ATP (HF: PDB 4HVC with ANP)
T1 construct: glutamyl‐prolyl‐tRNA synthetase 1 (EPRS1), which comprises glutamyl‐tRNA synthetase 1 (EARS1), three repeats of WHEP domain, and PARS1; made in house; host or cells: Escherichia coli

[5] = tested on: WI‐26 VA4 cells stably expressing PARS1 FA/EA/RL mutant; test: Collagen ELISA in cells stably expressing PARS1 mutant
[6] = tested on: TNT Quick Coupled Transcription/Translation System (luciferase synthesis); format: biochemical; conditions: for luciferase IC50/collagen IC50 / Relative (luciferase IC50)/(collagen IC50): Fig 5F; for Relative (luciferase IC50)/(collagen IC50) / Relative slope of luciferase activity: relative to HF
[7] = tested on: WI‐26 VA4 cells; test: Collagen ELISA (secreted pro‐collagen I); conditions: Fig 5H; for Relative slope of collagen level: relative to HF
[8] = log(inhibitor) vs. response, variable slope (four parameters)

Row | SMILES | CellTiter-Glo HillSlope (best-fit value) [1] | Hill slope (collagen) [2] | Relative slope (collagen) ([2]; EV cells (reference)) | puromycin IC50/collagen IC50 [3] | Hill slope of puromycin incorporation [3] | Relative (puromycin IC50)/(collagen IC50) [3] | Relative slope of puromycin incorporation [3] | binding mode to PARS1 protomers [4] | Hill slope (collagen) [5] | Relative slope (collagen) ([5]; relative to EV) | luciferase IC50/collagen IC50 [6] | Hill slope of luciferase activity ([6]; Fig 5I) | TNT-luciferase HillSlope (best-fit value) [6, 8] | Relative (luciferase IC50)/(collagen IC50) [6] | Relative slope of luciferase activity ([6]; Fig 5I) | Hill slope of Collagen level [7] | Relative slope of collagen level [7] | Hill slope of luciferase activity [6] | TNT-luciferase HillSlope (best-fit value) [6]
1 | O[C@H]1CCCN[C@@H]1CCCn1cnc2c(Cl)c(Cl)ccc21 [DWN12088] | -0.9531 | -0.8641 | -1 | 28.10 | -1.616 | 2.14 | -0.58 a.u. | asymmetrically | -1.331 | -1.540 | 24.90 | -1.54 | -1.54 | 2.33 | -0.38 a.u. | -1.329 | -0.61 a.u. | – | –
2 | Cc1c(Cl)ccc2c1ncn2CC(=O)C[C@H]1NCCC[C@@H]1O [DWN11748] | -0.7897 | – | – | 10.01 | -2.365 | 0.76 | -0.85 a.u. | symmetrically | – | – | 9.55 | -2.23 | -2.23 | 0.89 | -0.56 a.u. | -2.011 | -0.92 a.u. | – | –
3 | O=C(C[C@H]1NCCC[C@@H]1O)Cn1cnc2ccc(-c3cccc(F)c3)cc21 [DWN11251] | -1.095 | – | – | 16.50 | -1.784 | 1.26 | -0.64 a.u. | asymmetrically | – | – | 24.71 | -1.585 | -1.585 | 2.31 | -0.40 a.u. | -1.623 | -0.74 a.u. | – | –
4 | O=C(CC1NCCCC1O)Cn1cnc2cc(Br)c(Cl)cc2c1=O (stereo not shown) [HF, Halofuginone, reference compound] | -1.263 | -1.549 | – | – | -2.795 | – | – | symmetrically | -1.829 | – | – | – | – | – | – | -2.183 | – | -4.003 | -4.003
5 | Cc1c(Br)cnc2c1ncn2CC(=O)C[C@H]1NCCC[C@@H]1O [DWN11761] | -0.577 | – | – | 10.82 | -3.124 | 0.82 | -1.12 a.u. | symmetrically | – | – | 11.08 | -2.414 | -2.414 | 1.04 | -0.60 a.u. | -2.337 | -1.07 a.u. | – | –
